Experimental data: the supplement of paper PMC12823440, “Inhibitors supercharge kinase turnover through native proteolytic circuits” (Nature, 2025)
Structures can show the parent of a compound that is named as a salt. The list shows a part of the results. Hit calls seldom repeat between salt and free forms of one compound.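 Kinases were expressed as nanoluciferase fusions in K562 cells and luminescence was read every 4 h between 2 and 18 h as percent of control, DMSO set to 100% and a positive control to 0%. A time point counts as decreased when the signal drops significantly (2 sigma). The hit call is the authors' own, does not follow from the count of time points alone, and its rule is not shown.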

Target: EGFR_L858R (UniProt P00533)
Experiment: kinase-Nluc reporter destabilization hit call (1 = scored as downregulated) (binary); higher = compound decreases kinase abundance
Conditions: 10 µM; K562; 2-18 h

kinase-Nluc reporter destabilization hit call, inactive:
COc1cc2c(-c3cnn4cc(N5CCC(N6CCN(C)CC6)CC5)cnc34)ccnc2cc1F [ALK2-IN-4 (succinate)] 0
C#Cc1cccc(Nc2ncnc3cc(OCCOC)c(OCCO)cc23)c1 [Desmethyl Erlotinib] 0
N=C(N)NC(=O)c1nc(Cl)c(N)nc1N [Amiloride (hydrochloride)] 0
N#CC[C@H](C1CCCC1)n1cc(-c2ncnc3[nH]ccc23)cn1 [Ruxolitinib (phosphate)] 0
CC(=O)c1c(C)c2cnc(Nc3ccc(N4CCNCC4)cn3)nc2n(C2CCCC2)c1=O [Palbociclib (monohydrochloride)] 0
O=C(O)c1ccc2c(c1)nc(Nc1cccc(Cl)c1)c1ccncc12 [Silmitasertib (sodium salt)] 0
COc1ccnc(C[S+]([O-])c2nc3cc(-n4cccc4)ccc3[nH]2)c1C (stereo not given) [Ilaprazole (sodium)] 0
CC(C)NC[C@@H](C(=O)N1CCN(c2ncnc3c2[C@H](C)C[C@H]3O)CC1)c1ccc(Cl)cc1 [Ipatasertib (dihydrochloride)] 0
CC(=O)c1c(C)c2cnc(Nc3ccc(N4CCNCC4)cn3)nc2n(C2CCCC2)c1=O [Palbociclib (isethionate)] 0
O=C(c1ccc(F)c(F)c1Nc1ccc(I)cc1F)N1CC(O)([C@@H]2CCCCN2)C1 [Cobimetinib (hemifumarate)] 0
COC(=O)[C@H](CC(C)C)NC(=O)c1ccc(NC[C@@H](N)CS)cc1-c1cccc2ccccc12 0
N#CCNC(=O)c1ccc(-c2ccnc(Nc3ccc(N4CCOCC4)cc3)n2)cc1 [Momelotinib] 0
CC(=O)Nc1cccc(-n2c(=O)n(C3CC3)c(=O)c3c(Nc4ccc(I)cc4F)n(C)c(=O)c(C)c32)c1 [Trametinib] 0
O=C(Nc1cnn2ccc(N3CCC[C@@H]3c3cc(F)ccc3F)nc12)N1CC[C@H](O)C1 [Larotrectinib sulfate] 0
C#Cc1cccc(Nc2ncnc3cc4c(cc23)OCCOCCOCCO4)c1 [Icotinib (Hydrochloride)] 0
COc1cc2nccc(Oc3ccc(NC(=O)C4(C(=O)Nc5ccc(F)cc5)CC4)cc3)c2cc1OC [Cabozantinib (S-malate)] 0
N#CC[C@H](C1CCCC1)n1cc(-c2ncnc3[nH]ccc23)cn1 [Ruxolitinib] 0
CS(=O)(=O)N1CCN(Cc2cc3nc(-c4cccc5[nH]ncc45)nc(N4CCOCC4)c3s2)CC1 [Pictilisib (dimethanesulfonate)] 0
N#CCNC(=O)c1ccc(-c2ccnc(Nc3ccc(N4CCOCC4)cc3)n2)cc1 [Momelotinib sulfate] 0
C[C@H](CCC(=O)NCCS(=O)(=O)O)[C@H]1CC[C@H]2[C@@H]3[C@@H](O)C[C@@H]4C[C@H](O)CC[C@]4(C)[C@H]3CC[C@]12C [Tauroursodeoxycholate (sodium)] 0
CN(C)C(=N)NC(=N)N [Metformin (hydrochloride)] 0
C/C=C1\C(=O)C[C@H]2[C@@H]3CCC4=CC(=O)CC[C@]4(C)[C@H]3CC[C@]12C [Guggulsterone] 0
Cn1cc(-c2cnc3ccc4ccc(CS(=O)(=O)NCc5ccccn5)cc4c(=O)c3c2)cn1 [MK-8033 (hydrochloride)] 0
C/C=C1\C(=O)C[C@H]2[C@@H]3CCC4=CC(=O)CC[C@]4(C)[C@H]3CC[C@]12C [(Z)-Guggulsterone] 0
COc1cc2c(-c3cnn4cc(N5CCC(N6CCN(C)CC6)CC5)cnc34)ccnc2cc1F 0

Nothing new here: entries from further up.
kinase-Nluc reporter destabilization hit call, inactive:
COc1cc2nccc(Oc3ccc(NC(=O)C4(C(=O)Nc5ccc(F)cc5)CC4)cc3)c2cc1OC [Cabozantinib (S-malate)] 0
N#CC[C@H](C1CCCC1)n1cc(-c2ncnc3[nH]ccc23)cn1 [Ruxolitinib] 0
